Reference: PubChem BioAssay AID504775 (Broad Institute, 2011)
Out of some 320,000 compounds screened, about 310 (0.097%) were called active. Inconclusive results, whose numbers are uncertain, are shown with a selection of clear calls.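 How the source made its calls: active means mean replicate activation of at least 60% and every replicate at or above 60%; inconclusive means mean or all-replicate condition met, but not both; inactive means mean below 60% and not all replicates reaching 60%.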

Assay: enhancers of HDL lipid transfer via mSR-BI – ldlA[mSR-BI] CHO cells, DiI fluorescence, primary screen (AID 504775);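 further: 0% = median plate neutral-control signal and 100% = twice that signal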
Settings: DiI-HDL uptake fluorescence, 3 h, at 12.5 µM, stronger effect = higher value, 100 = double the neutral-control signal
Outline: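 Test system: SR-BI-overexpressing, LDLR-lacking CHO cells. Measured by: DiI fluorescence, bottom read. Medium: Ham's F12 with 0.5% BSA, HEPES 25 mM, pH 7.4. Timing: 3 h uptake period with compound, 37 °C.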

Row | SMILES | activation
1 | COc1ccc(-c2[nH]ncc2-c2cnc(C)s2)c(O)c1 | inconclusive: 86.1%
2 | CC(=O)Nc1ccc(C(=O)CN2C(=O)NC3(CCOc4ccccc43)C2=O)c(F)c1 (stereo not given) | inconclusive: 60.8%
3 | CCN(CC)CCNC(=O)c1ccc(-n2c(C)cc3c2CCCC3=O)cc1 | inconclusive: 177%
4 | COc1ccccc1-n1c(SCC(=O)O)nc2c(sc(=S)n2-c2ccc(C)c(C)c2)c1=O | inactive: 13.5%
5 | Nc1nc(COC(=O)C2CCN(C(=O)c3ccc(Cl)cc3)CC2)nc(Nc2ccccc2)n1 | inconclusive: 185%
6 | O=C(NCc1cccc2[nH]ccc12)C1CCC(=O)N(CCc2ccccc2)C1 (stereo not given) | active: 120%
7 | N#Cc1cccc(CS(=O)(=O)c2ccc(Cl)cc2)c1 | inconclusive: 63.6%
8 | CCOc1ccc(N(CC(=O)NC(C)CC)S(C)(=O)=O)cc1 (stereo not given) | inconclusive: 149%
9 | Cc1cc(-c2ccccc2)c2ccc(NC(=O)C(C)(C)C)nc2n1 | inconclusive: 88.8%
10 | CC(=O)NC1=NN(C(C)=O)C(c2sccc2C)S1 (stereo not given) | inconclusive: 63.7%
11 | COc1ccc(OC)c(CN2CCN(Cc3cc(OC)c(OC)c(OC)c3)CC2)c1 | inconclusive: 135%
12 | N/C(CSc1ncccc1C(F)(F)F)=N\O | inconclusive: 205%
13 | COc1ccc(Oc2ccccc2/C=C/C(=O)O)cc1 | active: 536%
14 | Cc1cc(C)nc(-n2nc(C)cc2NC(=O)c2ccc(F)cc2F)n1 | inconclusive: 148%
15 | C[C@@H](C(=O)N1CCNCC1)n1cc(CCCN=C(N)N)nn1 | inconclusive: 78.8%
16 | C#CCCc1ccccc1/C=[N+](/C)[O-] | inconclusive: 149%
17 | Cc1c(C(=O)NC(C)C)c(-c2ccccc2)nn1-c1ccccc1 | inconclusive: 61.4%
18 | Cn1/c(=N/N=C/c2ccc(Cl)c([N+](=O)[O-])c2)sc2ccccc21 | inconclusive: 110%
19 | CCOC(=O)/C=c1/s/c(=C\c2c(OC)ccc3ccccc23)c(=O)n1CC(=O)NCC1CCCO1 (stereo not given) | inconclusive: 286%
20 | CCOC(=O)CSc1nc(N2CCOCC2)c2c(c1C#N)CC(C)(C)OC2 | active: 416%

Row | SMILES | activation
21 | O=C(Cc1cccs1)N1CCN(S(=O)(=O)c2ccc(Br)cc2)CC1 | active: 195%
22 | Nc1nc(SCC(=O)NC2CCCCC2)n[nH]1 | inactive: 15.7%
23 | CSCC[C@H](NC(=O)c1ccc2c(c1)OCO2)c1nnc2ccccn12 | inactive: 15.3%
24 | CCC(=NC(C)c1ccccc1)c1c(O)n(C)c(=O)n(C)c1=O (stereo not given) | inconclusive: 61.6%
25 | CN1CC2=Cc3ccccc3OC23Oc2ccccc2C=C3C1 | inconclusive: 335%
26 | CCc1ccc(C(=O)CN(C#N)c2nc(C)cc(C)n2)cc1 | inactive: -22.8%
27 | COc1cc([N+](=O)[O-])ccc1NC(=O)/C=C/C(=O)O | inactive: 11.8%
28 | CCCCOC(=O)c1[nH]c(C)c(C(=O)OC)c1C | active: 176%
29 | O=c1oc(-c2ccc(O)c(O)c2)cc2cc(O)cc(O)c12 | inactive: -49.4%
30 | CC(C)CN(CC(C)C)C(=O)C12CCC(C)(C(=O)O1)C2(C)C (stereo not given) | inconclusive: 68%
31 | NC(N)=NS(=O)(=O)c1ccc(NC(=S)NC(=O)c2sc3ccccc3c2Cl)cc1 | inactive: -8.96%
32 | COc1ccc(S(=O)(=O)N2CCCC2CNC(=O)C(=O)NCc2ccco2)cc1 (stereo not given) | inconclusive: 91.1%
33 | CC(=O)Nc1ccc(S(=O)(=O)N(CC(=O)Nc2cc(C)on2)Cc2ccc(F)cc2)cc1 | inconclusive: 195%
34 | COC(=O)[C@@]12CCCCN1[C@H](c1ccc(-c3ccc(C(C)=O)cc3)c(OC)c1)[C@@H]1C(=O)N(C)C(=O)[C@@H]12 | inconclusive: 60.8%
35 | CCOC(=O)c1cn[nH]c1C(F)(F)F | inconclusive: 206%
36 | C=C(NC(=O)C(=C)NC(=O)c1csc(C2=NC3c4csc(n4)C4NC(=O)c5csc(n5)C(C(C)(O)C(C)O)NC(=O)C5CSC(=N5)/C(=C/C)NC(=O)C(C(C)O)NC(=O)c5csc(n5)C3(CC2)NC(=O)C(C)NC(=O)C(=C)NC(=O)C(=C)NC(=O)C(C(C)C)NC2C=Cc3c(C(C)O)cc(nc3C2O)C(=O)OC4C)n1)C(N)=O (stereo not given) | active: 143%
37 | Cc1c(Cl)cccc1NC(=O)C1CCCN(S(C)(=O)=O)C1 (stereo not given) | inconclusive: 317%
38 | CC(C)C1Oc2ccccc2N(CC(=O)N(Cc2ccccn2)C2CC2)C1=O (stereo not given) | active: 369%
39 | COc1ccc(-n2[nH]c(C)cc2=O)cc1 | inconclusive: 110%
40 | CCN(C[C@H]1N[C@@](Cc2ccccc2)(C(=O)OC)[C@H]2C(=O)N(Cc3ccccc3)C(=O)[C@@H]12)S(=O)(=O)c1ccc(F)cc1 | inconclusive: 266%

Reformatted as a markdown table: 2 of the compounds above

| Row | SMILES | activation |
| --- | --- | --- |
| 22 | Nc1nc(SCC(=O)NC2CCCCC2)n[nH]1 | inactive: 15.7% |
| 23 | CSCC[C@H](NC(=O)c1ccc2c(c1)OCO2)c1nnc2ccccn12 | inactive: 15.3% |

Looked up above.
For activation, N/C(CSc1ncccc1C(F)(F)F)=N\O has inconclusive: 205%
For activation, CCN(C[C@H]1N[C@@](Cc2ccccc2)(C(=O)OC)[C@H]2C(=O)N(Cc3ccccc3)C(=O)[C@@H]12)S(=O)(=O)c1ccc(F)cc1 has inconclusive: 266%
